Measurements reported in the supplement of paper PMC8728848.
This is one part of the list.

Columns and labels:
Assay in all cases: glycan array binding signal (z-score within array); higher = stronger binding
Details in all cases: glycan notation: IUPAC condensed, linker removed
[1] = molecular target: Gal(b1-4)GlcNAc(b1-3)Gal(b1-4)GlcNAc(b1-3)Gal(b1-4)GlcNAc(b1-3)Gal(b1-4)GlcNAc(b1-2)Man(a1-3)[Gal(b1-4)GlcNAc(b1-3)Gal(b1-4)GlcNAc(b1-3)Gal(b1-4)GlcNAc(b1-3)Gal(b1-4)GlcNAc(b1-2)Man(a1-6)]Man(b1-4)GlcNAc(b1-4)GlcNAc
In short: (§1)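 Glycan array data came from 3228 arrays in the Consortium for Functional Glycomics database, and only arrays with an available protein sequence were kept. Glycan names were put into IUPAC-condensed notation, and columns mapping to the same glycan were averaged. The binding signal is a within-array Z-score, averaged across arrays of one protein sequence run at different concentrations or buffers and across linkers. A negative Z-score can be read as non-binding.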

[2] = molecular target: Gal(b1-4)GlcNAc(b1-3)Gal(b1-4)GlcNAc(b1-3)Gal(b1-4)GlcNAc(b1-3)Gal(b1-4)GlcNAc(b1-2)Man(a1-3)[Gal(b1-4)GlcNAc(b1-3)Gal(b1-4)GlcNAc(b1-3)Gal(b1-4)GlcNAc(b1-3)Gal(b1-4)GlcNAc(b1-2)Man(a1-6)]Man(b1-4)GlcNAc(b1-4)[Fuc(a1-6)]GlcNAc
In short: as §1

[3] = molecular target: Gal(b1-4)GlcNAc(b1-3)Gal(b1-4)GlcNAc(b1-3)Gal(b1-4)GlcNAc(b1-3)Gal(b1-4)GlcNAc(b1-2)[Gal(b1-4)GlcNAc(b1-3)Gal(b1-4)GlcNAc(b1-3)Gal(b1-4)GlcNAc(b1-3)Gal(b1-4)GlcNAc(b1-6)]Man(a1-6)[Gal(b1-4)GlcNAc(b1-3)Gal(b1-4)GlcNAc(b1-3)Gal(b1-4)GlcNAc(b1-3)Gal(b1-4)GlcNAc(b1-2)Man(a1-3)]Man(b1-4)GlcNAc(b1-4)[Fuc(a1-6)]GlcNAc
In short: as §1

[4] = molecular target: Gal(b1-4)GlcNAc(b1-3)Gal(b1-4)GlcNAc(b1-3)Gal(b1-4)GlcNAc(b1-3)Gal(b1-4)GlcNAc(b1-3)Gal(b1-4)GlcNAc(b1-2)Man(a1-3)[Gal(b1-4)GlcNAc(b1-3)Gal(b1-4)GlcNAc(b1-3)Gal(b1-4)GlcNAc(b1-3)Gal(b1-4)GlcNAc(b1-3)Gal(b1-4)GlcNAc(b1-2)Man(a1-6)]Man(b1-4)GlcNAc(b1-4)GlcNAc
In short: as §1

[5] = molecular target: Gal(b1-4)GlcNAc(b1-3)Gal(b1-4)GlcNAc(b1-3)Gal(b1-4)GlcNAc(b1-3)Gal(b1-4)GlcNAc(b1-3)Gal(b1-4)GlcNAc(b1-2)Man(a1-3)[Gal(b1-4)GlcNAc(b1-3)Gal(b1-4)GlcNAc(b1-3)Gal(b1-4)GlcNAc(b1-3)Gal(b1-4)GlcNAc(b1-3)Gal(b1-4)GlcNAc(b1-2)Man(a1-6)]Man(b1-4)GlcNAc(b1-4)[Fuc(a1-6)]GlcNAc
In short: as §1

[6] = molecular target: Gal(b1-4)GlcNAc(b1-3)Gal(b1-4)GlcNAc(b1-3)Gal(b1-4)GlcNAc(b1-3)Gal(b1-4)GlcNAc(b1-3)Gal(b1-4)GlcNAc(b1-2)[Gal(b1-4)GlcNAc(b1-3)Gal(b1-4)GlcNAc(b1-3)Gal(b1-4)GlcNAc(b1-3)Gal(b1-4)GlcNAc(b1-3)Gal(b1-4)GlcNAc(b1-6)]Man(a1-6)[Gal(b1-4)GlcNAc(b1-3)Gal(b1-4)GlcNAc(b1-3)Gal(b1-4)GlcNAc(b1-3)Gal(b1-4)GlcNAc(b1-3)Gal(b1-4)GlcNAc(b1-2)Man(a1-3)]Man(b1-4)GlcNAc(b1-4)[Fuc(a1-6)]GlcNAc
In short: as §1

[7] = molecular target: Gal(b1-4)GlcNAc(b1-3)Gal(b1-4)GlcNAc(b1-3)Gal(b1-4)GlcNAc(b1-3)Gal(b1-4)GlcNAc(b1-3)Gal(b1-4)GlcNAc(b1-3)Gal(b1-4)GlcNAc(b1-2)Man(a1-3)[Gal(b1-4)GlcNAc(b1-3)Gal(b1-4)GlcNAc(b1-3)Gal(b1-4)GlcNAc(b1-3)Gal(b1-4)GlcNAc(b1-3)Gal(b1-4)GlcNAc(b1-3)Gal(b1-4)GlcNAc(b1-2)Man(a1-6)]Man(b1-4)GlcNAc(b1-4)GlcNAc
In short: as §1

[8] = molecular target: Gal(b1-4)GlcNAc(b1-3)Gal(b1-4)GlcNAc(b1-3)GalNAc
In short: as §1

[9] = molecular target: Gal(b1-4)GlcNAc(b1-3)Gal(b1-4)GlcNAc(b1-3)[Gal(b1-4)GlcNAc(b1-3)Gal(b1-4)GlcNAc(b1-6)]GalNAc
In short: as §1

[10] = molecular target: Gal(b1-4)GlcNAc(b1-3)Gal(b1-4)GlcNAc(b1-6)[Gal(b1-3)]GalNAc
In short: as §1

[11] = molecular target: Gal(b1-4)GlcNAc(b1-3)Gal(b1-4)[Fuc(a1-3)]GlcNAc(b1-3)Gal(b1-4)[Fuc(a1-3)]GlcNAc
In short: as §1

[12] = molecular target: Gal(b1-4)GlcNAc(b1-3)GalNAc
In short: as §1

[13] = molecular target: Gal(b1-4)GlcNAc(b1-3)[Fuc(a1-3)GlcNAc(b1-6)]Gal(b1-4)Glc
In short: as §1

[14] = molecular target: Gal(b1-4)GlcNAc(b1-3)[Gal(b1-4)GlcNAc(b1-6)]Gal(b1-4)GlcNAc
In short: as §1

[15] = molecular target: Gal(b1-4)GlcNAc(b1-3)[GlcNAc(b1-6)]Gal(b1-4)GlcNAc
In short: as §1

[16] = molecular target: Gal(b1-4)GlcNAc(b1-6)Gal(b1-4)GlcNAc
In short: as §1

[17] = molecular target: Gal(b1-4)GlcNAc(b1-6)GalNAc
In short: as §1

[18] = molecular target: Gal(b1-4)GlcNAc(b1-6)[Gal(b1-3)]GalNAc
In short: as §1

[19] = molecular target: Gal(b1-4)GlcNAc(b1-6)[Gal(b1-4)GlcNAc(b1-3)]GalNAc
In short: as §1

Gal(b1-4)GlcNAc6P = molecular target: Gal(b1-4)GlcNAc6P
In short: as §1

Gal(b1-6)Gal = molecular target: Gal(b1-6)Gal
In short: as §1

Gal3S(b1-3)GalNAc = molecular target: Gal3S(b1-3)GalNAc
In short: as §1

Gal3S(b1-3)GlcNAc = molecular target: Gal3S(b1-3)GlcNAc
In short: as §1

B1: DCIR1 (Mus musculus), Q9QZ15 (protein)
chain: MASEITYAEVKFKNESNSLHTYSESPAAPREKPIRDLRKPGSPSLLLTSLMLLLLLLAITFLVAFIIYFQKYSQLLEEKKAAKNIMHNELNCTKSVSPMEDKVWSCCPKDWRLFGSHCYLVPTVSSSASWNKSEENCSRMGAHLVVIQSQEEQDFITGILDTHAAYFIGLWDTGHRQWQWVDQTPYEESITFWHNGEPSSGNEKCATIIYRWKTGWGWNDISCSLKQKSVCQMKKINL
B1 was tested, and the “glycan array binding signal (z-score)” value [1] was -0.452, the “glycan array binding signal (z-score)” value [2] was -0.537 and the “glycan array binding signal (z-score)” value [3] was 2.04. The “glycan array binding signal (z-score)” value [4] was -0.475, the “glycan array binding signal (z-score)” value [5] was 2.35 and the “glycan array binding signal (z-score)” value [6] was 0.085. For the same binder, the “glycan array binding signal (z-score)” value [7] was -0.907, the “glycan array binding signal (z-score)” value [8] was -0.721 and the “glycan array binding signal (z-score)” value [9] was 0.557. The “glycan array binding signal (z-score)” value [10] was 0.91, the “glycan array binding signal (z-score)” value [11] was 1.05 and the “glycan array binding signal (z-score)” value [12] was -0.444. The “glycan array binding signal (z-score)” value [13] was -0.78, the “glycan array binding signal (z-score)” value [14] was -0.693 and the “glycan array binding signal (z-score)” value [15] was -0.372. The “glycan array binding signal (z-score)” value [16] was -0.872, the “glycan array binding signal (z-score)” value [17] was 1.01 and the “glycan array binding signal (z-score)” value [18] was -0.07. The “glycan array binding signal (z-score)” value [19] was 0.977, the “glycan array binding signal (z-score)” value (Gal(b1-4)GlcNAc6P) was 0.565 and the “glycan array binding signal (z-score)” value (Gal(b1-6)Gal) was -0.786. For the same binder, the “glycan array binding signal (z-score)” value (Gal3S(b1-3)GalNAc) was 0.904 and the “glycan array binding signal (z-score)” value (Gal3S(b1-3)GlcNAc) was 0.864.
